Test results as given in publication PMC2944810.

Columns and labels:
Test in all cases: FRET or BRET; FRET-FLIM in living N. benthamiana leaf epidermal cells after transient co-expression by agro-infiltration; GFP fusion of the movement protein as donor, RFP fusion as acceptor; fluorescence lifetime of the donor measured at tubules or plasmodesmata
[1] = molecular target: T1, PDLP2:RFP (plasmodesmata-located protein 2 fused to RFP) (Arabidopsis thaliana) (UniProt Q6NM73)
T1 sequence: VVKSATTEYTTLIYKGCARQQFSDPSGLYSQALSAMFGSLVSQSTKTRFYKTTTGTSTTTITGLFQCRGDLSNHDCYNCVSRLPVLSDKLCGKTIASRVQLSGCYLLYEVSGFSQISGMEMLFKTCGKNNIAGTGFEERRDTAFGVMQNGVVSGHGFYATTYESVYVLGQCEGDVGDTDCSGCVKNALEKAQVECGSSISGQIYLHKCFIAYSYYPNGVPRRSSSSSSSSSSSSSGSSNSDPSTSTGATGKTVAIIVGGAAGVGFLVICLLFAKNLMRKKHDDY

[2] = molecular target: T2, PDLP8:RFP (plasmodesmata-located protein 8 fused to RFP) (Arabidopsis thaliana) (UniProt Q6NKQ9)
T2 sequence: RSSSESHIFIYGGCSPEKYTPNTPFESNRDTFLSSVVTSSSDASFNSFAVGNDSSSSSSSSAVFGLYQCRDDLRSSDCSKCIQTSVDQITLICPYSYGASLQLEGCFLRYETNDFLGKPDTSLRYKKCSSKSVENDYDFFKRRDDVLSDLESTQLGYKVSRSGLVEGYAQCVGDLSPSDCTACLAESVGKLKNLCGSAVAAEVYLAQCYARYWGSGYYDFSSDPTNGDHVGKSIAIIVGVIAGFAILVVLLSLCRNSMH

[3] = molecular target: T3, PDLP4:RFP (plasmodesmata-located protein 4 fused to RFP) (Arabidopsis thaliana) (UniProt Q6E263)
T3 sequence: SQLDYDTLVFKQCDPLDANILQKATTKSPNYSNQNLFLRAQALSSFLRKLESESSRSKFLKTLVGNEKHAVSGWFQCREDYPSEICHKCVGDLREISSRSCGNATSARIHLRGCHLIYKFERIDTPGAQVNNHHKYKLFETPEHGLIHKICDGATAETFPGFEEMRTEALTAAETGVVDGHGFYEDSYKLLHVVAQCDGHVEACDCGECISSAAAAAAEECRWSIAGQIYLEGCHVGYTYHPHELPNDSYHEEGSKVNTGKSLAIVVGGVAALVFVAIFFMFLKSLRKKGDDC

[4] = molecular target: T4, PDLP6:RFP (plasmodesmata-located protein 6 fused to RFP) (Arabidopsis thaliana) (UniProt Q9ZU94)
T4 sequence: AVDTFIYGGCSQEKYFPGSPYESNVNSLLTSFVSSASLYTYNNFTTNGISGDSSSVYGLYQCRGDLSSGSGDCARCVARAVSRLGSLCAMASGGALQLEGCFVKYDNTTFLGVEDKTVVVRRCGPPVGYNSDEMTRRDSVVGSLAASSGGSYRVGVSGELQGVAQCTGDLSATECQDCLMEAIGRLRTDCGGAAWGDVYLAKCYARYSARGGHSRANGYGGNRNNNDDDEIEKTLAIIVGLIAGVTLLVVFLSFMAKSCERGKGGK

[5] = molecular target: T5, PDLP7:RFP (plasmodesmata-located protein 7 fused to RFP) (Arabidopsis thaliana) (UniProt Q0WPN8)
T5 sequence: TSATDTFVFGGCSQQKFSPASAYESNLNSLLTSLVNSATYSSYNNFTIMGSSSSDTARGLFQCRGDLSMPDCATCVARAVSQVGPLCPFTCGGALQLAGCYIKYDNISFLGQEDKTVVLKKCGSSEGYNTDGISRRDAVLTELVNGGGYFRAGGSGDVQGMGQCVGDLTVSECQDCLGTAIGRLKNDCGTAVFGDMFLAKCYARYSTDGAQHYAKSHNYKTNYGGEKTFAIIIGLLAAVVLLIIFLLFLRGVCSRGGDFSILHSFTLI

[6] = molecular target: T6, PDLP1:RFP (plasmodesmata-located protein 1 fused to RFP) (Arabidopsis thaliana) (UniProt Q8GXV7)
T6 sequence: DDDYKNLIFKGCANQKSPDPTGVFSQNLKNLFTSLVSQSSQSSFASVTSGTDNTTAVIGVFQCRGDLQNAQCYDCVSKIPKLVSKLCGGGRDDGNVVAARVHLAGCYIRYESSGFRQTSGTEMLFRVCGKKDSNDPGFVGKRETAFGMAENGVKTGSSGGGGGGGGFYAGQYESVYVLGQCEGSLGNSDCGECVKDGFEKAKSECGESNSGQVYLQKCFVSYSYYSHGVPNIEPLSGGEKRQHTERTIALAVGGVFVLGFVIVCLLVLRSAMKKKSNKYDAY

[7] = molecular target: T7, PDLP3:RFP (plasmodesmata-located protein 3 fused to RFP) (Arabidopsis thaliana) (UniProt O22784)
T7 sequence: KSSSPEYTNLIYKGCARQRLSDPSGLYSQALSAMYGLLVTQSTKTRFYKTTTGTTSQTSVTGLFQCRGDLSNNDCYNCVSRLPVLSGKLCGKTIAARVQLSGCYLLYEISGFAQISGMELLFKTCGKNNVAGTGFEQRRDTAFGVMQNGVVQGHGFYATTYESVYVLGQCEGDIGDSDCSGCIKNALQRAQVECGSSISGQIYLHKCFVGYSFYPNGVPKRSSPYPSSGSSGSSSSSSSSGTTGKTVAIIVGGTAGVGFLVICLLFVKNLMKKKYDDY

[8] = molecular target: T8, PDLP5:RFP (plasmodesmata-located protein 5 fused to RFP) (Arabidopsis thaliana) (UniProt Q8GUJ2)
T8 sequence: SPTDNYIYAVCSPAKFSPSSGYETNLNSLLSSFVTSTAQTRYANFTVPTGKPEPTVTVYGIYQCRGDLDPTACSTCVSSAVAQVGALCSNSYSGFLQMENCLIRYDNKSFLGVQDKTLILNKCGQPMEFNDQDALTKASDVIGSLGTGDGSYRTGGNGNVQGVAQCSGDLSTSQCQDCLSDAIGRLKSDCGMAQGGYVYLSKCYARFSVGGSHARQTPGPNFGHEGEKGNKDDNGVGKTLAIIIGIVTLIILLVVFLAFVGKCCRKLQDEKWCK

Measured: binding

GFP:2B (Grapevine fanleaf virus movement protein 2B fused to EGFP)
binds: all assays above

Results are given in words; binding and its absence hold for the method and conditions named. In cells and extracts the contact can be indirect. A result given as binding can be weak or reduced; the word gives no strength. Where a sequence is shown, tags or fusion partners need not be part of it.
